Source: article PMC9737475
Results are given in words; binding and its absence hold for the method and conditions named. Binding seen in cells or lysates may run through a third protein. Some entries that bind do so weakly or less than the wild type.

By UniProt entry, the sequences of proteins in these tests, tags left out.
UniProt P22736: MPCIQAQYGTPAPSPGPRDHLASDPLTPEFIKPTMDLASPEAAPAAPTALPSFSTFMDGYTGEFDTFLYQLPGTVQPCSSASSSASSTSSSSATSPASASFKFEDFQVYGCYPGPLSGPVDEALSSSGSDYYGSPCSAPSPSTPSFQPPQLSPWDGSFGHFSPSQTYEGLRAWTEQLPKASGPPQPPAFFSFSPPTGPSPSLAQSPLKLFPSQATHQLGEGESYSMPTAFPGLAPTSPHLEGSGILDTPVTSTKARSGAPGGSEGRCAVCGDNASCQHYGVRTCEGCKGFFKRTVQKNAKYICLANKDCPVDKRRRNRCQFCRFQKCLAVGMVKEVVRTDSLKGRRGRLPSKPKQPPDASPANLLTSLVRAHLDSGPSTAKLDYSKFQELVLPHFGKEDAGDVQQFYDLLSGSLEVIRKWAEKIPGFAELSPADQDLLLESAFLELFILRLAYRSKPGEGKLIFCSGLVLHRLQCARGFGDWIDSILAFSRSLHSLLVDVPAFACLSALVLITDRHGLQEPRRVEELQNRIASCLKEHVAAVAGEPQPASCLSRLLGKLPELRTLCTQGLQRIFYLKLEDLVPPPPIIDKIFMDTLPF
UniProt P10415: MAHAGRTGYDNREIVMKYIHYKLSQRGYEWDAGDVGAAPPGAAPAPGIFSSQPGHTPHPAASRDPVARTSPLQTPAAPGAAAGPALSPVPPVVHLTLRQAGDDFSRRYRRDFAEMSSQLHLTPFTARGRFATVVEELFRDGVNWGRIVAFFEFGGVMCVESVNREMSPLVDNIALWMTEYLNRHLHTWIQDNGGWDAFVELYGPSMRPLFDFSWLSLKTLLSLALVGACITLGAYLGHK

Experiments:
GFP-Nur77 [1] = target: GFP-Nur77 (UniProt P22736); test: co-IP; HepG2 cells co-transfected with GFP-Nur77 and Myc-Bcl-2, treated with 20 uM Bkh126 for 2 h (also in the presence of SP600125, JNK inhibitor, or SB203580, p38 inhibitor); lysates precipitated with anti-GFP and protein A/G-sepharose, 4 °C, blotted with anti-GFP and anti-Myc; IP lysis buffer 10 mM Tris-HCl pH 8.0, 150 mM NaCl, 10 mM EDTA, 0.2% NP-40
GFP-Nur77 [2] = target: GFP-Nur77 (UniProt P22736); test: condition: only without Bkh126 treatment of the cells; co-IP; HepG2 cells co-transfected with GFP-Nur77 and Myc-Bcl-2, without Bkh126 (control); lysates precipitated with anti-GFP and protein A/G-sepharose, 4 °C, blotted with anti-GFP and anti-Myc; IP lysis buffer 10 mM Tris-HCl pH 8.0, 150 mM NaCl, 10 mM EDTA, 0.2% NP-40

Substance: Myc-Bcl-2 (from UniProt P10415 1-239)
- binding (GFP-Nur77 [1]): binds
- binding (GFP-Nur77 [2]): no binding
